The source of these data is PMC11270583.

The target in experiment [1] is T1, Flag-tagged FLOT2^L104A mutant (UniProt Q60634).
T1 sequence: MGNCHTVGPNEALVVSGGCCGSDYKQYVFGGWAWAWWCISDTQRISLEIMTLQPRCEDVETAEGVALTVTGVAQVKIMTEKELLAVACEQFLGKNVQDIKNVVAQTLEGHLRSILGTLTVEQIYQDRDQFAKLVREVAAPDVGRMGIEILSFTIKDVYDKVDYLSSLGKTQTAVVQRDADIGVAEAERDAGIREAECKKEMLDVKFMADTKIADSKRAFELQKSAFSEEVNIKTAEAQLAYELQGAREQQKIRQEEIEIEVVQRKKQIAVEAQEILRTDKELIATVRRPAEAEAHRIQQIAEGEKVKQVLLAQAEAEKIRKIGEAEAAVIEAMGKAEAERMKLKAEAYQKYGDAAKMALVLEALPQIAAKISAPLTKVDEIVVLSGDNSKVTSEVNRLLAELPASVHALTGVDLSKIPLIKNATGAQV
The experiment in a line: co-IP; Flag-tagged FLOT2 L104A in transfected 4T1 cells with RAB31 (Figure S9, not shown; the sentence does not name the method, co-IP is the paper's only method with a RAB31 antibody).

Experiment [2] has as its target T2, flotillin 2 (FLOT2) (mouse (endogenous in 4T1)) (UniProt Q60634).
T2 sequence: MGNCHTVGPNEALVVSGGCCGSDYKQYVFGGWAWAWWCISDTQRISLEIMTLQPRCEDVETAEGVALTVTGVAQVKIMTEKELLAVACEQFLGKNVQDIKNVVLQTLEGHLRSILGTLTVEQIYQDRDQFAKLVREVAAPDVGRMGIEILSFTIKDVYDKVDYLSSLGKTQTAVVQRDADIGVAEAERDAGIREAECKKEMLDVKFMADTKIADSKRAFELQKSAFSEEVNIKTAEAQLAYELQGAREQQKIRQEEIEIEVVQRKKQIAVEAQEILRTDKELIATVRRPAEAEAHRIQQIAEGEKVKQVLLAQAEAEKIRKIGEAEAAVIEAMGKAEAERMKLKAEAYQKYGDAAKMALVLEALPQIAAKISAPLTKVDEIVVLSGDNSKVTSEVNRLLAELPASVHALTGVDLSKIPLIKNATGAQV
The experiment in a line: co-IP; endogenous RAB31 and FLOT2 in 4T1 cells, Pierce Co-Immunoprecipitation Kit; cells untreated or treated with 1.25-5 uM baohuoside I (BHS) for 48 h; which protein was precipitated is not told.

These are yes or no findings as the source states them, for the method shown. In cells and extracts the contact can be indirect. Some results given as binding are weak or reduced against the parent protein; the word gives no strength. For some assays here: Tags and fused reporters may be left off the sequences shown.

B1: RAS oncogene family member 31 (RAB31) (protein, UniProt Q921E2 1-195)
chain: MMAIRELKVCLLGDTGVGKSSIVCRFVQDHFDHNISPTIGASFMTKTVPCGNELHKFLIWDTAGQERFHSLAPMYYRGSAAAVIVYDITKQDSFHTLKKWVKELKEHGPENIVMAIAGNKCDLSDIREVPLKDAKEYAESIGAIVVETSAKNAINIEELFQGISRQIPPLGPQENGNSGGIKLGNQSLQASRRCC
B1: the binding entry in experiment [1] and in experiment [2] was “binds” throughout.
